{"source": "patent US20260210939A1", "about": "“MODIFIED OLFACTORY RECEPTORS” (GIVAUDAN SA, priority 2022, published 2026)", "system": "library of all human class II OR", "test": "Screening of the library of all class II OR (n=408, C-terminal domain SEQ ID NO: 221) with single odorants, luciferase induction", "format": "cell-based", "settings": "ligand at maximal non-cytotoxic concentration, full class II library", "procedure": "All human class II OR and all key genetic variants of these OR were synthesized with a sequence coding for an identical modified C-terminal domain […] (SEQ ID NO: 221) in the vector pcDNA3.1(+) to generate a library of all class II OR with an improved C-terminal domain.\nParallel transfection experiments were conducted with all these plasmids (n=408) and cells expressing the different OR were stimulated with one given ligand at a time, tested at the maximal, clearly non-cytotoxic concentration. In total 26 different ligands were tested on the full library of class II receptors.", "note": "For at least one compound, name, drawing or mass did not settle the structure."}
{"smiles": "O=Cc1ccc2c(c1)OCO2", "note": "[Heliotropine]", "values": [{"measurement": "Activated OR and OR variants", "value": "OR5P3"}]}
